Experimental data reported in article PMC5566321.
Results are given in words; binding and its absence hold for the method and conditions named. Binding seen in cells or lysates may run through a third protein. Some binding calls cover weakened binding; strength is not graded here.

Protein sequences, listed by entry. Tags and fused reporters are not part of them.
UniProt Q9UKV8: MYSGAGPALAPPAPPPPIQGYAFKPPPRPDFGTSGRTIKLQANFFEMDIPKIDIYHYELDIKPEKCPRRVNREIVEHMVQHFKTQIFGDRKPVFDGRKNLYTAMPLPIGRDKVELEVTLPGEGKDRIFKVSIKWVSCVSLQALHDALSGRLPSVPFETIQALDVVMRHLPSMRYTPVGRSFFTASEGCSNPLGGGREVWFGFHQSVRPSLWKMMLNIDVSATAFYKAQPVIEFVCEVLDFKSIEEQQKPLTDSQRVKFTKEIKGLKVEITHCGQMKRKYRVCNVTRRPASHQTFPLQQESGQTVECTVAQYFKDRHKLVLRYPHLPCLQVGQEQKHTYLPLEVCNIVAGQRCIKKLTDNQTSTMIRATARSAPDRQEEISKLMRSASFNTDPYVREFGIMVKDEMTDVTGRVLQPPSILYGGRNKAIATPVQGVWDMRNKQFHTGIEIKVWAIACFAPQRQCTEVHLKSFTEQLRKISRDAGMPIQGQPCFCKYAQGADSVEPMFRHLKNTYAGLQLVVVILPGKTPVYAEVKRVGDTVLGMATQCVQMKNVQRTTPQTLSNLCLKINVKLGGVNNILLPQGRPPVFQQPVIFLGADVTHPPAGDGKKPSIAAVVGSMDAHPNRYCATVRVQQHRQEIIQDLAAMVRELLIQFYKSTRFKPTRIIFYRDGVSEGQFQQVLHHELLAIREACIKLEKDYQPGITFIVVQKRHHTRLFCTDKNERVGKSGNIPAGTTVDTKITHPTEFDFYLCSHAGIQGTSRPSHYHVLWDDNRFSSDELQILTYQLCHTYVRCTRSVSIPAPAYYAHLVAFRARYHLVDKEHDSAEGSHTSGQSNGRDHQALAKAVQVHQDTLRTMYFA
UniProt Q96KQ7: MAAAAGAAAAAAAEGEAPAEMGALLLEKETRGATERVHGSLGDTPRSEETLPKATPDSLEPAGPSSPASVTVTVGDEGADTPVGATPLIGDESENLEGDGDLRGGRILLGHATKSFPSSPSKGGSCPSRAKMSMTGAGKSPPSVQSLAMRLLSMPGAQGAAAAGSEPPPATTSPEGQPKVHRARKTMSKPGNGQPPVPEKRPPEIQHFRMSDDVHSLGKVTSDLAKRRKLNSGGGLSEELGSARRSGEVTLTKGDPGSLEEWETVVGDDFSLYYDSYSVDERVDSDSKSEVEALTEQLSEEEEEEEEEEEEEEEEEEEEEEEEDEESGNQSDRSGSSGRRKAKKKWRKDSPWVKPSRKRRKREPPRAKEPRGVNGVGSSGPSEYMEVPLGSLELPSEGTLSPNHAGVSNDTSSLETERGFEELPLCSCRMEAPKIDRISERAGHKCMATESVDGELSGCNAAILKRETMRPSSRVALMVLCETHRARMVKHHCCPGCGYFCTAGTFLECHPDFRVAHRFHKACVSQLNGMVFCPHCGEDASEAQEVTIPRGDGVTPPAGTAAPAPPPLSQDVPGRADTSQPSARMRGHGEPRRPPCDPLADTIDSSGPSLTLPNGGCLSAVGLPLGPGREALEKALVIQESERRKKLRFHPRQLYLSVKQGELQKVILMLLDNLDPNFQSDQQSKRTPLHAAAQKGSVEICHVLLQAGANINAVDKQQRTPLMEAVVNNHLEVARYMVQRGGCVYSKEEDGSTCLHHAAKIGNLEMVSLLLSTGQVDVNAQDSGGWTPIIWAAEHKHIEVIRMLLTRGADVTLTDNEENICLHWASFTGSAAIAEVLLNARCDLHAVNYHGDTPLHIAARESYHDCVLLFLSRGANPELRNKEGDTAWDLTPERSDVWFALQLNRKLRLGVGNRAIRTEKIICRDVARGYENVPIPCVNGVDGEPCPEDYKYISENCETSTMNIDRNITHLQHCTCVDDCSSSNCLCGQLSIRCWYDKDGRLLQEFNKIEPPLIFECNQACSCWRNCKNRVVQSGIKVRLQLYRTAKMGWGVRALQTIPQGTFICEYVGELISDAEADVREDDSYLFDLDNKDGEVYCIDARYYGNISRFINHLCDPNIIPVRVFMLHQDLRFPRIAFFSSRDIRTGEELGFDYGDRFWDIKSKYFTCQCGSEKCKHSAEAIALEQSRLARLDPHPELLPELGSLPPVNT
UniProt P25490: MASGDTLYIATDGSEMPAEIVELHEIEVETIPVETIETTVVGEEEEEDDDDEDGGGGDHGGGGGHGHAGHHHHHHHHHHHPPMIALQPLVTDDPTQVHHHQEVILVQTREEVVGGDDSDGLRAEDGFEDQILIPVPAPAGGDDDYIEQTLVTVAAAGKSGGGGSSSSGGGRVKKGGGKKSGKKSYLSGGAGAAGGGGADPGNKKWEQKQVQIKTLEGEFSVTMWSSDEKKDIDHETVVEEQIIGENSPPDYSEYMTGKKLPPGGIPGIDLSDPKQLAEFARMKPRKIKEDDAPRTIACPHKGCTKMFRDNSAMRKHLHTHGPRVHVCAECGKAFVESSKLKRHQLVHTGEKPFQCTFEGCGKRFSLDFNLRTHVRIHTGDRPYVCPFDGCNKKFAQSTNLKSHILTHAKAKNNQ

Molecular target: Argonaute 2 (human (endogenous in MKN-45)) (UniProt Q9UKV8)
Assay: co-IP; immunoprecipitation with an AGO2 antibody on protein A-Sepharose beads, western blot; MKN-45 cells stably transfected with mock or miR-584-3p precursor

binding	Substance
binds	euchromatic histone lysine methyltransferase 2 (from UniProt Q96KQ7 1-1210)
no binding	Yin Yang 1 (from UniProt P25490 1-414)
